These are yes or no findings as the source states them, for the method shown. In cells and extracts the contact can be indirect. Some entries that bind do so weakly or less than the wild type.
T1: mouse endotrophin (C5 domain of the alpha3 chain of mouse collagen VI) (mouse)
T1 sequence: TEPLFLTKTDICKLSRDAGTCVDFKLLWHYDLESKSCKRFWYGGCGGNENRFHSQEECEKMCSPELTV

B1: 10B6-A11 rat anti-mouse endotrophin monoclonal antibody (antibody, V domains shown)
VH: QVQLQQSGPELAKPGSSVKISCKASGYTFTSYEMHWIKQRPGQGLEWIGYIYPESGSTGYNEKFKGKATLTVDKSSPTAYMQLSSLTPDNSAVYFCTRGLRVLGYVMDVWGHGTSVTVSS
VL: DVQLTQSPSFLSASVGDRVTINCKASQNINKYLNWYQQKLGEAPKRLIYNTNNLQTGIPSRFSGSASGTDYTLTISSLHPEDFATYFCLQHSSLYTFGAGTKLELK
B2: 10B6-B5 rat anti-mouse endotrophin monoclonal antibody (antibody, V domains shown)
VH: B1 VH
VL: B1 VL
B3: 10B6-C3 rat anti-mouse endotrophin monoclonal antibody (antibody, V domains shown)
VH: B1 VH
VL: B1 VL

biological target: T1, mouse endotrophin (C5 domain of the alpha3 chain of mouse collagen VI) (mouse); test: pull-down of IRD-800 labeled native endotrophin with antibody and Protein G Sepharose, Tricine gel, infrared scan

binding | Binder
binds | B1
binds | B2
binds | B3

Reference: patent US9605057
